The list shows a part of the results.
Tests used:
Experiment in all cases: log2 fold change, soluble protein after heating vs DMSO (PISA); higher = thermal stabilisation; K562 lysate, 10 uM; active = over 0.2 and 3.5 SD of the protein, either way, in both replicates (recomputed)
erlotinib = compound: C#Cc1cccc(Nc2ncnc3cc(OCCOC)c(OCCOC)cc23)c1 [erlotinib]
Method in brief: (§1)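 Quantification was by TMTpro 16plex LC-MS/MS with equalised channel sums, applied to the supernatant after 21,000xg for 90 min. Samples were crude K562 extract at 1 mg/mL protein in PBS pH 7.4 with 1 mM MgCl2, treated with 10 μM compound for 30 min, heated for 3 min across 48°C-58°C, pooled and brought to 0.5% NP-40 at 4°C. Values are log-two fold changes in thermal stability relative to solvent controls, from duplicates.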

By UniProt entry, the sequences of proteins in these tests, tags left out. Where a name states a change or a piece, a line headed by the entry shows the natural chain unless it says otherwise.
UniProt O75420: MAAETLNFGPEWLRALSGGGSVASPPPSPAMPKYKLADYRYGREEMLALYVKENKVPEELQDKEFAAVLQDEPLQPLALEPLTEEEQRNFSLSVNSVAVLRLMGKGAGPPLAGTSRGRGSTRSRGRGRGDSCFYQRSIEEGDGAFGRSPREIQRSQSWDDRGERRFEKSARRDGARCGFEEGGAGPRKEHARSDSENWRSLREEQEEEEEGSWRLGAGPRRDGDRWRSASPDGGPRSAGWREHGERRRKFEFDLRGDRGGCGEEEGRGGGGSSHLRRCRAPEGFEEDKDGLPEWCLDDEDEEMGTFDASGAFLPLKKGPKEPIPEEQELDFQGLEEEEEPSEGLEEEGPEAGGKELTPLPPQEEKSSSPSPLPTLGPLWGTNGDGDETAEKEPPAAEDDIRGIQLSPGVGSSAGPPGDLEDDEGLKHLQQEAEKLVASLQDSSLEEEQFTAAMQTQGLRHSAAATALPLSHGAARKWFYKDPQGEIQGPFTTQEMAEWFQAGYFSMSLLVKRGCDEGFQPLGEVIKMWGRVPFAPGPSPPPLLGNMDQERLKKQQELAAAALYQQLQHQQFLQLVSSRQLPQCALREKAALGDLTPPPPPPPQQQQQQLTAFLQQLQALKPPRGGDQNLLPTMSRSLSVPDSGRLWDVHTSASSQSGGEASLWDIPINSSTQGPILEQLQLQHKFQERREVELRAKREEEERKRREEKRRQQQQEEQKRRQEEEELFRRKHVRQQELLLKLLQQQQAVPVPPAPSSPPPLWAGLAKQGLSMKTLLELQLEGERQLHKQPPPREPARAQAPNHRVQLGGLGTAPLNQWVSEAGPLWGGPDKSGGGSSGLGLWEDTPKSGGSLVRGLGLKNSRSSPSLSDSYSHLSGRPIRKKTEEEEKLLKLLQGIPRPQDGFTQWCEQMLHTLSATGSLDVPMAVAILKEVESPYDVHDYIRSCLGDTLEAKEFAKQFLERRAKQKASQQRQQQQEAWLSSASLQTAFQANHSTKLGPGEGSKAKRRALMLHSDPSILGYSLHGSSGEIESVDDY
UniProt Q5VW38: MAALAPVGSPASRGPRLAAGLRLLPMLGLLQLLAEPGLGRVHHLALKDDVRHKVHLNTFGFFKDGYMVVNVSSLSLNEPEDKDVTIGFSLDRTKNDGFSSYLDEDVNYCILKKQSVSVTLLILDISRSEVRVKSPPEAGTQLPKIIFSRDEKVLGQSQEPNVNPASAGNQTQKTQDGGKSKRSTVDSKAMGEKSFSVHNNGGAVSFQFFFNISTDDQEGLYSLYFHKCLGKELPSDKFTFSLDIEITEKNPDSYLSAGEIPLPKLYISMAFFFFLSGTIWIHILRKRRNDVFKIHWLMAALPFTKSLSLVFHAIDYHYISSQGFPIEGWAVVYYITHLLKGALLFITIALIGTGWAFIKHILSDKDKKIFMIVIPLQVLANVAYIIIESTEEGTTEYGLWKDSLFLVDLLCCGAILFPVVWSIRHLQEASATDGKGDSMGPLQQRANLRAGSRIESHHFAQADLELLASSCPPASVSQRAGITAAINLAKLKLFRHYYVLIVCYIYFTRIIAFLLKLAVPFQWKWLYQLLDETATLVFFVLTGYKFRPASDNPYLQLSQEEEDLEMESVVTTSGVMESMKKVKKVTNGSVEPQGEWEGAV
UniProt Q86SX6: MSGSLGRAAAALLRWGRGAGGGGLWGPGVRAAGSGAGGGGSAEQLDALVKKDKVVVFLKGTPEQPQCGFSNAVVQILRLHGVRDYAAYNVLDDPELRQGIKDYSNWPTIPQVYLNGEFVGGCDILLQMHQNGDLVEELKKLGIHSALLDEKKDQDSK
UniProt Q86WP2: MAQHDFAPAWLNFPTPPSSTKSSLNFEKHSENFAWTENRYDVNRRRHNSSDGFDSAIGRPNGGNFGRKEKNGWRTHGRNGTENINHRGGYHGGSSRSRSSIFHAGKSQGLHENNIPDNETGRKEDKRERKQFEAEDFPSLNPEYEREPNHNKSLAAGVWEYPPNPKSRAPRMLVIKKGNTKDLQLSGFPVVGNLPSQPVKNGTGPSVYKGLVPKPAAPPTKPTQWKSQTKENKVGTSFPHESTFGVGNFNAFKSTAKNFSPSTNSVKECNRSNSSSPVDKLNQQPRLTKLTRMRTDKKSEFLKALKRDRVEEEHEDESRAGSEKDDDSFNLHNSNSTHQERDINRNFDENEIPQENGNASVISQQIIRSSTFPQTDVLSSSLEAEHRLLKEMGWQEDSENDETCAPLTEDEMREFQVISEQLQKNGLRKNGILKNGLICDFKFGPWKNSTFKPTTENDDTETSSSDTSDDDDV
UniProt O76003: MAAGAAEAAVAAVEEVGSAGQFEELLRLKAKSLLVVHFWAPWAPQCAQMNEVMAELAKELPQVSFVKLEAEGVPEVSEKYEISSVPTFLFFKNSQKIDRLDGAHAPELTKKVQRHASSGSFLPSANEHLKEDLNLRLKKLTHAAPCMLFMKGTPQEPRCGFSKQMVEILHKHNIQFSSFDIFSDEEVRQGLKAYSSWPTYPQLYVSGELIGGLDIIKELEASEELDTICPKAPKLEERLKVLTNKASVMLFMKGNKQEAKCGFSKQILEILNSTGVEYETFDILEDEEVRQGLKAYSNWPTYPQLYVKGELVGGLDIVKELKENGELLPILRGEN
UniProt Q9NZD2: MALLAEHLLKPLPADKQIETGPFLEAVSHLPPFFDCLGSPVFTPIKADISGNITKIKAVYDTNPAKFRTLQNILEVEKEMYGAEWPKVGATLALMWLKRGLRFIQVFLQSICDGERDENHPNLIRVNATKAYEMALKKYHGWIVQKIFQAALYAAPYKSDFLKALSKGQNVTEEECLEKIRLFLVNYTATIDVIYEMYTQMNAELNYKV
UniProt Q9BVM4: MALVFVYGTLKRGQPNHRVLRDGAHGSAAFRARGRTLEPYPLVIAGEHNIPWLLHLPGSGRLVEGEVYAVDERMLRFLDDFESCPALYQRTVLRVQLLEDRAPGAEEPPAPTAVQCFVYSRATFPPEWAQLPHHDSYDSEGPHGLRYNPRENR
UniProt Q53EU6: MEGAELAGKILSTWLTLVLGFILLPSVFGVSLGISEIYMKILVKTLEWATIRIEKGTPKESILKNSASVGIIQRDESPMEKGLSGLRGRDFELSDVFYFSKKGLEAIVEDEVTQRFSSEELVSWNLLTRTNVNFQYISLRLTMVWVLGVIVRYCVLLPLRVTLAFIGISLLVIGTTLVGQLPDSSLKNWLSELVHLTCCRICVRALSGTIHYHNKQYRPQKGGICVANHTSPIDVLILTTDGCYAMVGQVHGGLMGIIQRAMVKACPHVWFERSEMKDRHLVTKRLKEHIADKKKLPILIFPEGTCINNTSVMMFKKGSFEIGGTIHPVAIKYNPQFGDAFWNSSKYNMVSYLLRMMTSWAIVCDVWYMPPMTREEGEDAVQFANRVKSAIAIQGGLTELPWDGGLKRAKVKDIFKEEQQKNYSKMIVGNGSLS
UniProt P19440: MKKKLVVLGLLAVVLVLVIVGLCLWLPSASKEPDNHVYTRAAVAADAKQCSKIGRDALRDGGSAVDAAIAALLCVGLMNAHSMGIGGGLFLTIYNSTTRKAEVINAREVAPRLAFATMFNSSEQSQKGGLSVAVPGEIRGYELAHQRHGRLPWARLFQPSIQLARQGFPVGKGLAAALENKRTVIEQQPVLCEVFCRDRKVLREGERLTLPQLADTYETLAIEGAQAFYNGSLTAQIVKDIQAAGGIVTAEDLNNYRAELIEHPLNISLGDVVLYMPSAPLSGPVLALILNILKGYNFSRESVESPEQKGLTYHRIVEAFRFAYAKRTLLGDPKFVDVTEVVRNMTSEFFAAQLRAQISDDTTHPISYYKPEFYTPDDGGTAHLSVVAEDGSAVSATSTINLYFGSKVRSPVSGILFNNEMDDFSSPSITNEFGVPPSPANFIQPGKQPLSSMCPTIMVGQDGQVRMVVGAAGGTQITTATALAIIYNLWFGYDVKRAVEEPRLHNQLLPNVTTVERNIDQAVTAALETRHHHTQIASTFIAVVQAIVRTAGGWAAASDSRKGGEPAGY
UniProt Q96EK6: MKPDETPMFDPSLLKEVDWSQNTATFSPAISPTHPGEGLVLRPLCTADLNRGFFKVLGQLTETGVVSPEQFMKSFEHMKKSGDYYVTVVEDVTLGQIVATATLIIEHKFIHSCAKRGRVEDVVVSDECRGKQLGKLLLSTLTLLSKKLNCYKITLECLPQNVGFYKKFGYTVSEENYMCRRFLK
UniProt Q96IJ6: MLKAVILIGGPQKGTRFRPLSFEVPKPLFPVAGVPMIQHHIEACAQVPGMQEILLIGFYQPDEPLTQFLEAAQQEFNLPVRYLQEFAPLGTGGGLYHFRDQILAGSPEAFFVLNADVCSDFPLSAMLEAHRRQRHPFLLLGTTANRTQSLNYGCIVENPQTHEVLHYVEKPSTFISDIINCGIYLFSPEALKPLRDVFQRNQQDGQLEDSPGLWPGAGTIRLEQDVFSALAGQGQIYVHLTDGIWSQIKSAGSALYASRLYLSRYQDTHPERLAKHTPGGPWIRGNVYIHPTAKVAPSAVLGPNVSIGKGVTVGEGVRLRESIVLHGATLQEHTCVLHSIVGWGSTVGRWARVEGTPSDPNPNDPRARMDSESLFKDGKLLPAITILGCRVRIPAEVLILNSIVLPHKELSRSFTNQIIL
UniProt Q92805: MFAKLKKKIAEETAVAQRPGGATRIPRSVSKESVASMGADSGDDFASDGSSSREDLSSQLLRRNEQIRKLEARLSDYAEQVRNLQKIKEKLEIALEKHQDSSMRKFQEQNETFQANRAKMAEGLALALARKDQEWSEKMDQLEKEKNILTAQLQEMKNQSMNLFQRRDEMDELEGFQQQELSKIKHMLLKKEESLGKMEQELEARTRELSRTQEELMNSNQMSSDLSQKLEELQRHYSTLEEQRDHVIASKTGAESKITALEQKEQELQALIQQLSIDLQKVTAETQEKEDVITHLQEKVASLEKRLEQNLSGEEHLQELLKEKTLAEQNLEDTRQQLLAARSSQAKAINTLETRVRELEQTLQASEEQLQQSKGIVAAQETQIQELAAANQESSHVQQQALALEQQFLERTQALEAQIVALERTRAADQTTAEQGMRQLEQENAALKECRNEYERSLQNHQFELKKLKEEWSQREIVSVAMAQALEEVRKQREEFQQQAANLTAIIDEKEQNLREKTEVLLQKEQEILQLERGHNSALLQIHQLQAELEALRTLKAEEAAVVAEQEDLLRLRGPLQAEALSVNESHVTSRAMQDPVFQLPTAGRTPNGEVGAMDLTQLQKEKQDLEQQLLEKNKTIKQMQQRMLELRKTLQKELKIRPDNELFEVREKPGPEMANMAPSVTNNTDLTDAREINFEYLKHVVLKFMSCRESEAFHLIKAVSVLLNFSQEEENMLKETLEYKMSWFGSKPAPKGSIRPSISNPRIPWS
UniProt Q8IXQ4: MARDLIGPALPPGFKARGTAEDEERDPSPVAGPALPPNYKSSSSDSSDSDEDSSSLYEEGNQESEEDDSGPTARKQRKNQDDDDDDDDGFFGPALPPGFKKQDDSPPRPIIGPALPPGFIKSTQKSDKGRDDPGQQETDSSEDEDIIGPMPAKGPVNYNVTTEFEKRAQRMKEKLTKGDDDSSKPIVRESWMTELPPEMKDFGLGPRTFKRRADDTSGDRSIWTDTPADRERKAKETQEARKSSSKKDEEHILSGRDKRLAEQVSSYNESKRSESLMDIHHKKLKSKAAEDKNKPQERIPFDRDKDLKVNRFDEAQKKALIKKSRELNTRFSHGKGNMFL
UniProt Q8N335: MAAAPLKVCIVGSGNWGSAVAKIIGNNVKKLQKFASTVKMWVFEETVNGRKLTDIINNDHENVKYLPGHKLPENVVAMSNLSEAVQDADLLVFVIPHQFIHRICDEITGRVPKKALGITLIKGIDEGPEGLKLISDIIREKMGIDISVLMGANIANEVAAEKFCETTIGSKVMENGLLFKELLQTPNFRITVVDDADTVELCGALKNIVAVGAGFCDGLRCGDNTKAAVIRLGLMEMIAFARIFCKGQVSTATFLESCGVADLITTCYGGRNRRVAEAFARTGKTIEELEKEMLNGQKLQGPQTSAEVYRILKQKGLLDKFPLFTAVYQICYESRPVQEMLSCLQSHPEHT
UniProt O75223: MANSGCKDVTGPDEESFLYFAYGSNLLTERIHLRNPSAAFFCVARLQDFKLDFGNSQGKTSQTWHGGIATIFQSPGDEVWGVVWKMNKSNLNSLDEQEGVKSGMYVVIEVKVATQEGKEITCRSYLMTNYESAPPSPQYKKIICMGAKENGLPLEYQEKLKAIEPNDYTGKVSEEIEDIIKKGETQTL
UniProt O14908: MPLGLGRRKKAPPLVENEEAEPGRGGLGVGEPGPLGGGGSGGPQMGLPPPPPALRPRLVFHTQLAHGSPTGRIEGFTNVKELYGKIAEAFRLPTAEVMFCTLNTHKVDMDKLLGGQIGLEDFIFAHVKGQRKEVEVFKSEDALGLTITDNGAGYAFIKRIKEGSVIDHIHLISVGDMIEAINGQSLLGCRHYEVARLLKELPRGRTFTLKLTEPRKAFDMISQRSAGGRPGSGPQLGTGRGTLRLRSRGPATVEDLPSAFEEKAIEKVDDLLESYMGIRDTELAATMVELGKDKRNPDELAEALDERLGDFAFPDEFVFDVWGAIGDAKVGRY

[1] = compound: C/C(=N\NC(=O)C1=CC(=CC=C1)S(=O)(=O)N2CCOCC2)/C3=C(C=CC(=C3)Cl)O
Method in brief: as §1

[2] = compound: C1=CC(=CC=C1C2=NC3=C(N2)C=C(C=C3)C(=O)N)OC4=CC=C(C=C4)Cl
Method in brief: as §1

[3] = compound: C1=CC2=C(C=CC(=C2)/C=C\3/C(=O)NC(=NCC4=CC=CS4)S3)N=C1
Method in brief: as §1

[4] = compound: C1=CC2=NC=CN=C2C=C1/C=C/3\C(=O)NC(=O)S3
Method in brief: as §1

[5] = compound: C1=CC=C(C=C1)C2=NC(=C(N2)C3=CC=NC=C3)C4=CC(=C(C=C4)Cl)O
Method in brief: as §1

[6] = compound: C1=CC=C2C(=C1)C3=NNC4=CC=CC(=C43)C2=O
Method in brief: as §1

[7] = compound: C1CCN(C1)C(=O)NC2=CC=CC(=C2)NC3=NC=C(C(=N3)NCCC4=CN=CN4)Br
Method in brief: as §1

[8] = compound: C1CN(CCC1(CC2=CC=C(C=C2)Cl)N)C3=NC=NC4=C3C=CN4
Method in brief: as §1

IRAK-1-4 Inhibitor I = compound: C1COCCN1CCN2C3=CC=CC=C3N=C2NC(=O)C4=CC(=CC=C4)[N+](=O)[O-] [IRAK-1-4 Inhibitor I]
Method in brief: as §1

Measured: log2 fold change

GORASP2 isoform 3 (UniProt Q9H8Y8)
inactive: erlotinib 0.02 | [1] -0.061 | [2] -0.009 | [3] 0.024 | [4] 0.033 | [5] -0.034 | [6] -0.048 | [7] -0.018 | [8] -0.008 | IRAK-1-4 Inhibitor I 0.007

GP1BB isoform 2 (UniProt P13224)
inactive: erlotinib 0.002 | [1] 0.063 | [2] -0.012 | [3] -0.035 | [4] 0.006 | [5] -0.034 | [6] 0.021 | [7] 0.074 | [8] -0.014 | IRAK-1-4 Inhibitor I -0.024

GIGYF1 (UniProt O75420)
inactive: erlotinib 0.067 | [1] 0.08 | [2] 0.072 | [3] -0.002 | [4] -0.091 | [5] 0.017 | [6] 0.004 | [7] 0.012 | [8] 0.012 | IRAK-1-4 Inhibitor I -0.033

GPR107 isoform 2 (UniProt Q5VW38)
inactive: erlotinib 0.008 | [1] -0.07 | [2] 0.016 | [3] -0.008 | [4] -0.054 | [5] 0.045 | [6] 0 | [7] -0.021 | [8] 0.008 | IRAK-1-4 Inhibitor I 0.039

GLRX5 (UniProt Q86SX6)
inactive: erlotinib 0.033 | [1] 0.067 | [2] 0.016 | [3] -0.042 | [4] -0.039 | [5] 0.031 | [6] -0.058 | [7] 0.057 | [8] 0.102 | IRAK-1-4 Inhibitor I 0.018

GGNBP2 (UniProt Q9H3C7)
inactive: erlotinib -0.012 | [1] -0.01 | [2] 0.074 | [3] -0.045 | [4] -0.102 | [5] 0.004 | [6] -0.006 | [7] -0.011 | [8] 0.06 | IRAK-1-4 Inhibitor I 0.006

GPBP1 isoform 2 (UniProt Q86WP2)
inactive: erlotinib 0.054 | [1] -0.039 | [2] 0.043 | [3] 0.012 | [4] -0.088 | [5] 0.041 | [6] 0.003 | [7] -0.111 | [8] 0.034 | IRAK-1-4 Inhibitor I 0.031

GLRX3 (UniProt O76003)
inactive: erlotinib 0.01 | [1] 0.019 | [2] 0.011 | [3] -0.02 | [4] 0.018 | [5] 0 | [6] 0.008 | [7] 0.021 | [8] 0.048 | IRAK-1-4 Inhibitor I -0.004

GLTP (UniProt Q9NZD2)
inactive: erlotinib -0.029 | [1] 0.024 | [2] -0.003 | [3] -0.015 | [4] -0.107 | [5] -0.049 | [6] 0.001 | [7] 0.013 | [8] 0.068 | IRAK-1-4 Inhibitor I 0.017

GK (UniProt P32189)
inactive: erlotinib -0.015 | [1] -0.004 | [2] -0.035 | [3] 0 | [4] 0.028 | [5] -0.007 | [6] -0.038 | [7] 0.01 | [8] -0.007 | IRAK-1-4 Inhibitor I 0.006

Pulled one by one from the entries so far (2):
GIGYF1 (UniProt O75420)
inactive: erlotinib 0.067 | [1] 0.08 | [2] 0.072 | [3] -0.002 | [4] -0.091 | [5] 0.017 | [6] 0.004 | [7] 0.012 | [8] 0.012 | IRAK-1-4 Inhibitor I -0.033

GLRX5 (UniProt Q86SX6)
inactive: erlotinib 0.033 | [1] 0.067 | [2] 0.016 | [3] -0.042 | [4] -0.039 | [5] 0.031 | [6] -0.058 | [7] 0.057 | [8] 0.102 | IRAK-1-4 Inhibitor I 0.018

Following part.

GGACT (UniProt Q9BVM4)
inactive: erlotinib -0.007 | [1] -0.198 | [2] 0.022 | [3] -0.046 | [4] -0.028 | [5] -0.004 | [6] -0.117 | [7] -0.041 | [8] 0.044 | IRAK-1-4 Inhibitor I 0.039

GOLGA4 isoform 5 (UniProt Q13439)
inactive: erlotinib 0.011 | [1] -0.026 | [2] 0.021 | [3] -0.002 | [4] -0.031 | [5] 0.014 | [6] -0.052 | [7] -0.042 | [8] 0.022 | IRAK-1-4 Inhibitor I 0

GOLGB1 (UniProt Q14789)
inactive: erlotinib -0.023 | [1] -0.019 | [2] -0.088 | [3] 0.025 | [4] -0.031 | [5] 0.026 | [6] -0.088 | [7] -0.033 | [8] 0.011 | IRAK-1-4 Inhibitor I -0.005

GPAT3 (UniProt Q53EU6)
inactive: erlotinib 0.033 | [1] -0.123 | [2] -0.111 | [3] -0.05 | [4] 0.055 | [5] -0.005 | [6] -0.002 | [7] 0.038 | [8] 0.071 | IRAK-1-4 Inhibitor I -0.017

GGT1 (UniProt P19440)
inactive: erlotinib -0.003 | [1] 0.007 | [2] -0.021 | [3] 0.029 | [4] -0.038 | [5] -0.002 | [6] -0.022 | [7] -0.024 | [8] -0.021 | IRAK-1-4 Inhibitor I -0.025

GPD2 (UniProt P43304)
inactive: erlotinib -0.012 | [1] -0.07 | [2] 0.002 | [3] -0.002 | [4] 0.006 | [5] -0.001 | [6] -0.098 | [7] 0.006 | [8] -0.017 | IRAK-1-4 Inhibitor I 0.003

GNPNAT1 (UniProt Q96EK6)
inactive: erlotinib -0.022 | [1] 0.047 | [2] 0.016 | [3] 0.014 | [4] 0.007 | [5] 0.028 | [6] 0.068 | [7] -0.026 | [8] 0.013 | IRAK-1-4 Inhibitor I -0.03

GGA3 (UniProt Q9NZ52)
inactive: erlotinib 0.003 | [1] -0.035 | [2] -0.034 | [3] -0.019 | [4] 0.008 | [5] -0.037 | [6] 0.062 | [7] 0.004 | [8] -0.025 | IRAK-1-4 Inhibitor I -0.054

GMNN (UniProt O75496)
inactive: erlotinib -0.006 | [1] 0.053 | [2] -0.025 | [3] -0.015 | [4] -0.003 | [5] 0.009 | [6] 0.051 | [7] 0.01 | [8] -0.026 | IRAK-1-4 Inhibitor I -0.031

GMPPA (UniProt Q96IJ6)
inactive: erlotinib -0.001 | [1] 0.021 | [2] -0.025 | [3] 0.012 | [4] -0.04 | [5] 0.029 | [6] -0.056 | [7] 0.043 | [8] -0.01 | IRAK-1-4 Inhibitor I 0.008

GPCPD1 (UniProt Q9NPB8)
inactive: erlotinib 0.046 | [1] -0.053 | [2] 0.034 | [3] -0.025 | [4] -0.028 | [5] -0.043 | [6] -0.028 | [7] -0.005 | [8] 0.036 | IRAK-1-4 Inhibitor I -0.033

GOLGA1 (UniProt Q92805)
inactive: erlotinib 0.029 | [1] 0.09 | [2] -0.002 | [3] -0.004 | [4] 0.021 | [5] 0 | [6] 0.124 | [7] 0.018 | [8] 0.038 | IRAK-1-4 Inhibitor I 0.017

GPALPP1 (UniProt Q8IXQ4)
inactive: erlotinib -0.02 | [1] -0.005 | [2] 0.025 | [3] -0.011 | [4] 0.023 | [5] -0.015 | [6] 0.006 | [7] -0.042 | [8] 0.043 | IRAK-1-4 Inhibitor I 0.013

GOT2 (UniProt P00505)
inactive: erlotinib -0.003 | [1] 0.011 | [2] 0.029 | [3] 0.002 | [4] -0.004 | [5] -0.007 | [6] 0.009 | [7] 0.014 | [8] 0.002 | IRAK-1-4 Inhibitor I 0.003

GPD1L (UniProt Q8N335)
inactive: erlotinib 0.036 | [1] -0.021 | [2] -0.036 | [3] 0.004 | [4] 0.076 | [5] 0.026 | [6] -0.004 | [7] 0.062 | [8] -0.013 | IRAK-1-4 Inhibitor I -0.05

GGCT (UniProt O75223)
inactive: erlotinib 0.024 | [1] 0.028 | [2] -0.015 | [3] -0.043 | [4] 0.019 | [5] 0.006 | [6] 0.012 | [7] -0.001 | [8] 0.031 | IRAK-1-4 Inhibitor I 0.007

GINS2 (UniProt Q9Y248)
inactive: erlotinib 0.048 | [1] 0.144 | [2] -0.034 | [3] 0.029 | [4] -0.024 | [5] -0.008 | [6] 0.012 | [7] -0.011 | [8] 0.04 | IRAK-1-4 Inhibitor I 0.025

GPR108 (UniProt Q9NPR9)
inactive: erlotinib 0.035 | [1] 0.022 | [2] 0 | [3] 0.066 | [4] 0.015 | [5] 0.056 | [6] -0.028 | [7] -0.015 | [8] 0.03 | IRAK-1-4 Inhibitor I -0.026

GLE1 (UniProt Q53GS7)
inactive: erlotinib 0.087 | [1] -0.055 | [2] -0.103 | [3] -0.084 | [4] 0.132 | [5] 0.167 | [6] 0.01 | [7] -0.118 | [8] 0.027 | IRAK-1-4 Inhibitor I -0.011

GIPC1 (UniProt O14908)
inactive: erlotinib 0.054 | [1] 0.042 | [2] 0.046 | [3] 0.028 | [4] 0.016 | [5] -0.014 | [6] 0.006 | [7] -0.063 | [8] -0.018 | IRAK-1-4 Inhibitor I -0.026
